Experimental findings from PubChem BioAssay AID1347426 (Functional Genomics Laboratory (NCATS/FGL), 2020) are described below.

About 1,400 (4.5%) of roughly 31,000 sequences were called active.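 The calls were made as follows: active = median seed-adjusted z-score above 1 or below -1; inactive = the rest.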 The list shows a part of the results.

A short description of this assay: Novel Modifiers of Survival Motor Neuron (SMN) Protein: Gene Identification via Genome-wide siRNA Screen.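 Also: luminescence tracks full-length SMN protein made from the SMN2 reporter.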 The following applies: HEK293T SMN2-luciferase reporter, siRNA knockdown, 72 h; actives lie on both sides. The procedure, abridged:
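HEK293T cells stably expressing an SMN2 splicing/cDNA-luciferase reporter were reverse-transfected with a druggable-genome siRNA library and read by luminescence at 72 hours; hits defined by MAD score above 1.0 or below -1.0.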
For orientation: A reporter such as luciferase makes a cellular process visible.
With ACAUCUUCAUUAUAGAAUATT against REXO2, the median seed-adjusted z-score is inactive: -0.0419.
For the sequence GGACGAUGAUGUAAUUGUATT against GLT8D2, the median seed-adjusted z-score was inactive: -0.619.
Then CCCAUAUUCGGAUCCAGAATT against PTPN6, with inactive: -0.515; and GCUGGUUACUUAUCACCAATT against TPH1, with inactive: -0.055; and GGUCAUUUACAGCACCGAUTT against MYOC, with inactive: 0.764.
Then CGAGAGGUGUAUCAAUAUATT against LIN7A, with active: -1.39; and GCAAUAGGAUUGUUUUCGATT against ABCC2, with inactive: -0.0464.
Then CGAGAUCUACUUUGGAAAATT against CAPZB, with inactive: -0.106; and CCUGGACUUUAUCCGCUCATT against SPIRE2, with inactive: 0.0604.
Take GCCGAGUUCUUCUACAACUTT against HRH3: the median seed-adjusted z-score was inactive: 0.276.
Turning to GGGACUCAGUAUUAGCCUUTT against ECH1, the median seed-adjusted z-score is inactive: 0.0348.
For the sequence GGAUUAUAUUGACAUCAGUTT against DLST, the median seed-adjusted z-score was active: 1.16.
In the case of GCAAGUCGUGAAACUAUAATT against YEATS4, the median seed-adjusted z-score was inactive: 0.905.
Turning to ACUUGGACCUGUCCUCCAATT against TSKU, the median seed-adjusted z-score was inactive: -0.548.
Then GGCCCUCAGGUAAUGCUAATT against TTF2, with inactive: 0.282.
GCGAUGUUCUCAUUCCGGATT against ACADL: the median seed-adjusted z-score is inactive: 0.223.
With GAGGAUAUCUUGGUCAGAATT against CYB5R2 the figure was inactive: -0.403; with GCACUGUCUACAUCCCUGATT against RHCG, inactive: 0.375.
Consider GCAAGACUUUUGGUCGAAATT against ZNF816A, for which the median seed-adjusted z-score was inactive: 0.39.
Consider GAUCGAUUACAGUAGGUGATT against ESSPL, for which the median seed-adjusted z-score is inactive: 0.328.
Regarding GAAGCGGCAUUAGCAGAGATT against ISOC1, the median seed-adjusted z-score was inactive: 0.104.
Then GACACUCUCUAAUCGAAUUTT against SENP5, with inactive: 0.215.
With GCUUCGUCAUCGACAACAATT against CACNA2D4, the median seed-adjusted z-score was inactive: -0.0464.
Then UCAAUACUCUGAUCCUCAATT against AIPL1, with inactive: -0.259; and GAUAAAAGGAUGGAUGAAATT against PRPF6, with active: -1.06.
As for CAUCUACACGCAGAAAUCATT against MS4A6A, the median seed-adjusted z-score was inactive: 0.174.
With GGGUGGACGUGGAUACUUATT against NFE2L1 the figure was inactive: 0.689.
On to GCACUGAUGUAAAUUACUUTT against RAB6C, for which the median seed-adjusted z-score is active: -1.08.
With CCAUAUAAGUUUACGUUUATT against TM9SF2, the median seed-adjusted z-score is active: 1.09.
As for CAUGGGAGAUUGUCCUGUATT against CD163, the median seed-adjusted z-score was inactive: 0.021.
With CUUACUCCCUUCAAACGAATT against GPR64 the figure was inactive: 0.527; with GGAACCUACCUGACUAAGATT against ARL9, inactive: 0.98.
For the sequence GCAGAUAUUUCAUUCAAAUTT against ZNF620, the median seed-adjusted z-score is inactive: 0.172.
With GUGACAAACCGAUACCUGUTT against COPE the figure was inactive: 0.499; with UCUACUAUCUGAACAAGAATT against EGLN3, inactive: -0.0575.
Take CGGUAGAUGGCAAGACCAUTT against RABL2A: the median seed-adjusted z-score is inactive: 0.794.
With GGAUCUCAGUUUCUUAUCATT against PPIL4 the figure was inactive: 0.00225; with GGCAACGACUCUUACCGAATT against MBD4, inactive: -0.107; with GGUCAACUCUCUACUGAUATT against ARHGAP29, inactive: -0.0483.
As for GGAAUUGUUUAGGACUAAATT against ZNF749, the median seed-adjusted z-score was inactive: 0.911.
Consider AAGAAUUUGCAUUACCUUATT against GTPBP8, for which the median seed-adjusted z-score was inactive: 0.834.
Then GGAUAUCAGCGAAAGGCAATT against GPR21, with inactive: 0.246.
With GGUGACGGCAGUGACCAAATT against GPR135 the figure was inactive: 0.546; with AGGAGUCCCUAAUGCUACATT against TRIM74, inactive: 0.0932; with GGACUGUCUUCAUGCGCUUTT against ENG, inactive: -0.254.
On to GCAGUUGUCCAGUUACGAATT against RAD50, for which the median seed-adjusted z-score was inactive: 0.266.
Take CCACCAAUGCAUGUGAAAATT against KRT33B: the median seed-adjusted z-score was inactive: 0.04.
As to GCAGAUCAAUUUUCGGCUUTT against GLDC, the median seed-adjusted z-score is inactive: 0.
With GGUACUAUUUCCUAAGUGATT against HOOK2 the figure was inactive: 0.0914; with GAAUGGUCGUGGAUUCACATT against MAPKAPK5, inactive: 0.489; with GCUUGUGCCUUGUCCCAAATT against PRKCDBP, inactive: 0.244.
As for CCACAUCAGCAGUACUACATT against TBX15, the median seed-adjusted z-score was inactive: 0.265.
With CAAACGAGCAAGUCAGUUUTT against ARHGAP10 the figure was inactive: -0.458.
Regarding GCAUCUACGAGUUCAUCAUTT against FOXG1, the median seed-adjusted z-score was inactive: 0.749.
On to GAAACUCGACGGUCCUCAATT against SERTAD2, for which the median seed-adjusted z-score was inactive: 0.43.
With CCUCAGAACCGGCAAGAAATT against TNFAIP1 the figure was inactive: 0.0766; with GCAUAAAGCUCCAAGUGAATT against PLUNC, inactive: 0.254.
Consider CAACAUUGGUGGGAAUGCATT against EIF2B2, for which the median seed-adjusted z-score is inactive: -0.325.
Regarding UGAUCAUUGUCCCUACAGATT against SERPINA3, the median seed-adjusted z-score was inactive: 0.125.
Turning to GAGGAGAUCGCGUUCCUUATT against DES, the median seed-adjusted z-score was inactive: 0.
Take GGCAUUAAUUCAUGGACUATT against PSMD14: the median seed-adjusted z-score is inactive: 0.375.
With CCAACACCCUCUCUCGAUATT against PLIN the figure was inactive: 0.166.
Then GAAUCAACAUCUCCCGAGATT against TAC3, with inactive: -0.00265; and ACAAAUACAUGGAGAUCCATT against MGAT5B, with inactive: 0; and GGUCAACCGUUACUAUGGATT against ITPR1, with inactive: -0.0888.
With CCAGCUAUGAGAAAUCAGATT against FCER1G the figure was inactive: 0.136; with GUAUUGAUGUCACCACAGATT against MFN2, inactive: -0.0968.
In the case of CCUGGAGAACUAUAUCUCATT against PXN, the median seed-adjusted z-score was inactive: -0.69.
On to GAACUGGACCGAUUGCUGUTT against PLEKHM2, for which the median seed-adjusted z-score was inactive: 0.593.
Then GCCUUUUCGUUAACCGCUUTT against SLC2A1, with inactive: -0.349.
As for GCAAAGUCAUGGAGGAAAATT against OSBPL7, the median seed-adjusted z-score is inactive: 0.
With GGCGCGACCUUCGAAUGUATT against RNF5 the figure was inactive: -0.0342; with CAUCAGCUGGUGAUCGAUATT against PPP1R12A, inactive: -0.103; with GUGUGAUUGUCGCUCGAAATT against SLC24A1, inactive: 0.372.
AGGUGAAGGACUUAACUAATT against RAB11FIP3: the median seed-adjusted z-score is inactive: 0.0361.
Turning to AGGAAAUGUUUCGAAGGAATT against SSX3, the median seed-adjusted z-score is inactive: 0.
Then CCACCAUAGGUUAUGGGCATT against KCNK9, with inactive: 0.735; and CGGUGACUGUGAACGGCAATT against DNAJB8, with active: -1.09.
With CAACAAAAGGAGCACACGATT against IFI35 the figure was inactive: 0.105.
Then CAAAUACUCUAGGUUGAUATT against GABRR2, with inactive: 0.
As to GAGCUUUGCUGACCCUUCATT against ZNF668, the median seed-adjusted z-score is inactive: 0.
As to GAAACUCCCGGGUAACUCATT against ZBTB39, the median seed-adjusted z-score is inactive: -0.209.
With GGACCUUUGGUCAUACUAATT against ENPP4 the figure was inactive: 0; with CCAAGUUAUUGAUUACAAATT against OPN5, inactive: 0.483.
With GAACCACGGUAACCAUCUATT against GPR18 the figure was inactive: -0.378; with AGAAUACGAUGACCACCAATT against RING1, inactive: 0.685.
In the case of CUCCAGUUGAUAGAGAAAATT against HOXA9, the median seed-adjusted z-score was inactive: -0.304.
Then GCGUGACCAUGAACGAGUUTT against AKT1, with inactive: -0.288.
As for CUGGAAUUCUUAAGUAAAATT against ANP32C, the median seed-adjusted z-score was inactive: -0.421.
Regarding CUGUGGAAUUUGUAGGAUUTT against RCHY1, the median seed-adjusted z-score was inactive: -0.157.
As for GGAGUAACAAGACCAAUGATT against F13A1, the median seed-adjusted z-score was inactive: -0.508.
Take GCCUGUCCUUCUCCAUUGATT against ISX: the median seed-adjusted z-score was active: 1.99.
With GAACAACAGCUCAGAACAATT against RARA the figure was inactive: -0.0195; with GUACUACACUGAGGACCAATT against HABP2, inactive: -0.141; with GCCGGAUUCUGAAAGUGUATT against OSBPL1A, inactive: 0.0845.
Then GGUACGCUGUGGAAUGAGATT against STK16, with inactive: 0.113; and GGUUUUCACUCAAGCAUCATT against ZBTB32, with inactive: 0.458; and CAUCUACACUUAUUACACUTT against KCNT2, with inactive: 0.449.
Then GCAUCUACAAGCUGCUAUATT against BEST1, with inactive: -0.322; and CUCAUAAUCUGCUAACGGATT against QTRT1, with inactive: 0.0708; and GAAGGACGGAGUACUAAUATT against TP53BP1, with inactive: -0.166.
For the sequence GAGCUUGACUCGAGUCUUATT against GSTA5, the median seed-adjusted z-score is inactive: 0.523.
Then GGAUAUAACGAGAAUGUCUTT against MED27, with active: -1.62; and GCCCAUACAAAAAUCCUUATT against ZNF354B, with inactive: 0.393.
With AGUGUACAAUCGAUAAAAATT against ESR2 the figure was active: -1.1; with GCAAUGACCUGGAGAGACATT against SPNS3, inactive: -0.00533; with CCGCAGUGAUUAUGACAUATT against PRSS12, inactive: 0.119.
Then CCAUUACCUUGUGAACGGATT against ADAM18, with inactive: -0.913.
